Laboratory results: PubChem BioAssay AID2685 (National Center for Advancing Translational Sciences (NCATS), 2010)
Some of the results follow. The main result of the screen is listed elsewhere. These columns were measured beside it and carry no call. Most of these compounds were active or inconclusive in the main read-out, so they are no random draw. The note in brackets gives the kind of curve behind each potency; many fits are weak.

Assay: qHTS Assay for Lipid Storage Modulators in Drosophila S3 Cells;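 on cell number change: cells counted by Cell Tracker Red CMTPX staining in the red channel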
Settings: BODIPY lipid droplet fluorescence, 18-24 h; for cell number change: measured here: cell count max response, cells fed with added oleic acid
Procedure, shortened: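 Laser-scanning cytometry quantifies lipid droplet accumulation (500–530 nm total intensity; droplet/cell object ratio) in oleic acid-fed (400 uM added) Drosophila S3 cells treated with a concentration series. 20 uM Triacsin C defined 100% inhibition.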

[1] = measured here: lipid fluorescence (Fed channel) AC50, cells fed with added oleic acid
[2] = measured here: cell number channel AC50, cells fed with added oleic acid

Row | Compound | cell number change [%] | AC50 [1] | AC50 [2]
1 | CCOc1ccc2ccccc2c1/C=N/NC(=O)CNC(=O)C(c1ccccc1)c1ccccc1 | -23.6 | 16.4 µM [falling, single point] | 
2 | O=C(COC(=O)CCC(=O)c1ccc(Cl)cc1)NC1CC1 | 41.1 |  | 
3 | CN1CCCN(S(=O)(=O)c2ccccc2)c2nc3ccccc3nc21 | 8.48 | 0.411 µM [rising, full curve, poor fit] | 
4 | N#CC[C@H](Cc1ccccc1)N1CC[C@@H](O)CCC1=O | 23.1 | 29.1 µM [rising, single point] | 
5 | Cc1[nH]c2ccccc2c1SCc1n[nH]c(=S)n1C | 24.3 |  | 
6 | O=C(NCCc1cnc[nH]1)Nc1cccc(C(F)(F)F)c1 | -24.1 | 6.51 µM [falling, single point] | 
7 | CCn1c(C)nc2cc(C(=O)OCCC(F)(F)F)ccc21 | -60.7 | 23.1 µM [falling, partial curve] | 10.3 µM [falling, partial curve, poor fit]
8 | COc1ccccc1/C=C/C(=O)NC(=S)NCC1CCCO1 (stereo not given) | 39.7 | 29.1 µM [rising, single point] | 25.9 µM [rising, single point]
9 | C=CCc1ccc(OCC(O)CN2CCN(c3ccccc3)CC2)c(OC)c1 (stereo not given) | -38.5 | 18.4 µM [falling, single point] | 18.4 µM [falling, single point]
10 | C[C@@H](NC(=O)c1nc[nH]c1C(=O)N[C@H](C)c1ccccc1)c1ccccc1 | -34.9 | 1.84 µM [rising, partial curve] | 13 µM [falling, single point]
11 | CC(C)CCNC(=O)NC(=O)CSc1nnc(-c2ccccc2F)n1N |  | 0.366 µM [falling, single point] | 4.11 µM [falling, partial curve]
12 | CC1CCCC(C)N1C(=O)CCN1C(=O)C2C3C=CC(C3)C2C1=O (stereo not given) | 20 | 20.6 µM [rising, single point] | 
13 | CN(C)c1nc2n(c(=O)n1)CCS2 | -2.26 | 0.00651 µM [falling, full curve] | 
14 | CS(=O)(=O)c1ccccc1C(=O)N1CCN(S(=O)(=O)c2ccc(C3CCCCC3)cc2)CC1 |  | 0.291 µM [rising, partial curve] | 
15 | CCOc1ccc(C(CCc2ccccc2)NC(=O)c2ccc(OC)c(OC)c2)cc1OCC (stereo not given) | -10.9 |  | 
16 | C/C(=N\NC(N)=S)c1ccc(-n2ccnc2)cc1 | 1.08 | 0.164 µM [rising, single point] | 
17 | CCn1nc(C)c(C2C(C#N)=C(N)OC3=C2C(=O)CC(C)(C)C3)c1C (stereo not given) | -17.6 | 29.1 µM [rising, single point] | 
18 | CCC1CCCCN1CC(=O)c1c(C)[nH]c2cc(C)ccc12 (stereo not given) | -9.22 |  | 
19 | CC(C)Oc1cccc(C(=O)N/N=C/c2coc3ccccc3c2=O)c1 | 6.07 |  | 

Row | Compound | cell number change [%] | AC50 [1] | AC50 [2]
20 | COc1ccc(-n2c(=O)cc(N3CCCCCC3)[nH]c2=O)cc1 | -37.7 | 0.411 µM [falling, full curve] | 1.64 µM [falling, full curve]
21 | CC(C)N(Cc1ccccc1)C(=O)COC(=O)/C=C/c1cnc2ccccc2n1 | 43.3 |  | 2.59 µM [rising, full curve]
22 | CC(C)=CC1C(C(=O)NCCOc2ccccc2)C1(C)C (stereo not given) | 18.6 | 0.58 µM [rising, single point] | 
23 | Cc1nn(Cc2ccc(Cl)cc2)c2sc(C(=O)OCC(N)=O)cc12 |  | 4.11 µM [rising, partial curve, poor fit] | 0.92 µM [rising, partial curve]
24 | Cn1cccc1Cc1nnc(SCC(=O)Nc2ccc(F)cc2F)n1-c1ccc(F)cc1 | 36.8 |  | 29.1 µM [rising, single point]
25 | CCOc1ccc2nc(N3CCC(C(=O)N4CCN(c5ccccn5)CC4)CC3)sc2c1 | 30.1 |  | 14.6 µM [rising, single point]
26 | Cc1ccc(OCCN2CCN(C(=O)CCC(=O)Nc3nnc(C)s3)CC2)cc1 | 26 | 32.6 µM [rising, single point] | 
27 | Cc1ccc(CSCC(Nc2ccc(C(=O)O)cc2[N+](=O)[O-])C(=O)O)cc1 (stereo not given) | 8.18 | 1.3 µM [falling, full curve, poor fit] | 
28 | c1coc(CN2CNc3nc4ccccc4n3C2)c1 | 29.7 | 9.2 µM [rising, single point] | 
29 | CNC[C@@H](CC1CCCCC1)NC[C@H](CC(C)C)NCCc1cccc(C(F)(F)F)c1 | -35.6 |  | 23.1 µM [falling, single point]
30 | COc1cc(OC)c(OC)cc1CN(C)CCc1ccccn1 | 1.66 | 8.2 µM [falling, partial curve, poor fit] | 5.8 µM [falling, single point]
31 | COC(=O)c1ccccc1OC(=O)c1ccc(Br)o1 | -32.9 | 2.31 µM [falling, partial curve] | 0.731 µM [falling, full curve]
32 | CCOc1ccc(N2C(=O)/C(=C\c3ccc(OC)c(O)c3)S(=O)(=O)C2c2cccc([N+](=O)[O-])c2)cc1 (stereo not given) | -3.92 | 0.146 µM [falling, full curve, poor fit] | 0.13 µM [falling, full curve, poor fit]
33 | CC(C)C[C@@H](COc1ccccc1)N1CCN(Cc2ccccc2)CCC1=O | 22.7 | 16.4 µM [falling, single point] | 
34 | Cn1c(=O)c(C(=O)COC(=O)c2cc(C(F)(F)F)nc3ccccc23)c(N)n(Cc2ccccc2)c1=O | 16 | 0.326 µM [rising, full curve] | 
35 | CCN(CC)S(=O)(=O)c1cccc(C(=O)NC2CCCCC2)c1 | -11.4 | 11.6 µM [rising, partial curve] | 
36 | COc1ccc(CNC(=O)CN(Cc2ccccc2OC)C(=O)c2csnn2)cc1 | 10.7 |  | 
37 | CCOc1ccc(NC(=O)C2CCN(C(=O)C3CC(=O)N(c4ccc(C)cc4)C3)CC2)cc1 (stereo not given) | 30.7 | 6.51 µM [rising, single point] | 

Three compounds already listed, sorted by number of heavy atoms, high to low.
Row | Compound | cell number change [%] | AC50 [1] | AC50 [2]
34 | Cn1c(=O)c(C(=O)COC(=O)c2cc(C(F)(F)F)nc3ccccc23)c(N)n(Cc2ccccc2)c1=O | 16 | 0.326 µM [rising, full curve] | 
24 | Cn1cccc1Cc1nnc(SCC(=O)Nc2ccc(F)cc2F)n1-c1ccc(F)cc1 | 36.8 |  | 29.1 µM [rising, single point]
30 | COc1cc(OC)c(OC)cc1CN(C)CCc1ccccn1 | 1.66 | 8.2 µM [falling, partial curve, poor fit] | 5.8 µM [falling, single point]
